Taken from: PubChem BioAssay AID504764 (Drosophila RNAi Screening Center, 2011)
In all, the deposit lists about 22,000 reagents; shown is a random part of those that have a named target and a result. Over the whole deposit, 403 (1.9%) got an active call. 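Unnormalised raw counts per well; ratio z-scores behind the hit calls and whether each hit raises or lowers signal are not deposited.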 Reagents against one gene are numbered here. A plus sign joins genes that one reagent is predicted to hit. Not given: the amount of reagent.

- Purpose: 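Knock-downs that raise or lower a Notch target reporter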 (primary screen)
- Cells: Drosophila Kc167 cells
- Reagents: long dsRNA against Drosophila genes
- Duration: about 5 days (4 days dsRNA, then 24 h after transfection)
- Challenge: transfection of constitutively active membrane-tethered Notch lacking the extracellular domain, read 24 h later
- Measurement: 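Firefly luciferase from an E(spl)m3 reporter with active Notch, plus control-promoter and uninduced reporter wells for normalisation; unnormalised counts, duplicate wells a and b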
- Direction: induced reporter light, run 1, well a and induced reporter light, run 1, well b: higher = more light from the Notch target reporter with active Notch; control promoter light, run 1, well a and control promoter light, run 1, well b: higher = more light from the viral control promoter (cell number, transfection, viability); uninduced reporter light, run 1, well a: higher = more light from the Notch target reporter without active Notch
- Rule for the call: 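Wells with low control signal or poorly matching duplicates excluded; duplicates averaged; per source plate, z beyond ±2 for induced/control log2 ratio or beyond ±1.8 for induced/uninduced marks a hit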
- Calls: active = modifier hit (raised or lowered Notch signal); inactive = not a hit

| Target gene | reagent | induced reporter light, run 1, well a | induced reporter light, run 1, well b | control promoter light, run 1, well a | control promoter light, run 1, well b | uninduced reporter light, run 1, well a | call |
| --- | --- | --- | --- | --- | --- | --- | --- |
| nesd (nessun dorma) | 1 | 2.58e5 | 2.33e5 | 2.44e5 | 2.74e5 | 18240 | inactive |
| CG14881 | 1 | 2.68e5 | 2.36e5 | 2.51e5 | 2.57e5 | 18355 | inactive |
| CG3588 | 1 | 95110 | 1.15e5 | 1.43e5 | 1.64e5 | 8140 | inactive |
| CG7889 | 1 | 1.23e5 | 1.24e5 | 82025 | 64200 | 8430 | inactive |
| ValRS (Valyl-tRNA synthetase) | 1 | 1.29e5 | 1.13e5 | 1.47e5 | 1.56e5 | 10010 | inactive |
| CG5787 | 1 | 1.74e5 | 1.65e5 | 1.66e5 | 1.49e5 | 16805 | inactive |
| CG33981 + fab1 | 1 | 1.09e5 | 1.08e5 | 1.83e5 | 1.93e5 | 9010 | inactive |
| otk (off-track) | 1 | 1.07e5 | 1.27e5 | 1.30e5 | 1.26e5 | 10405 | inactive |
| snRNA:U1:95Cc + snRNA:U1:95Cb | 1 | 1.93e5 | 1.97e5 | 1.98e5 | 2.03e5 | 17950 | inactive |
| CG30376 | 1 | 67530 | 76090 | 1.10e5 | 99240 | 3135 | inactive |
| sced (scrambled) | 1 | 1.87e5 | 2.14e5 | 1.57e5 | 1.89e5 | 13638 | inactive |
| Ku80 | 1 | 83035 | 1.02e5 | 95385 | 89155 | 7182 | inactive |

The list goes on (2 carried over from the part before).
| Target gene | reagent | induced reporter light, run 1, well a | induced reporter light, run 1, well b | control promoter light, run 1, well a | control promoter light, run 1, well b | uninduced reporter light, run 1, well a | call |
| --- | --- | --- | --- | --- | --- | --- | --- |
| sced (scrambled) | 1 | 1.87e5 | 2.14e5 | 1.57e5 | 1.89e5 | 13638 | inactive |
| Ku80 | 1 | 83035 | 1.02e5 | 95385 | 89155 | 7182 | inactive |
| CG12535 | 1 | 1.45e5 | 1.35e5 | 2.18e5 | 1.86e5 | 6840 | inactive |
| CG14866 | 1 | 2.25e5 | 2.18e5 | 1.94e5 | 2.01e5 | 17400 | inactive |
| Nacalpha (Nascent polypeptide associated complex protein alpha subunit) | 1 | 68955 | 66885 | 45640 | 47095 | 5260 | inactive |
| Sap30 (SIN3-associated polypeptide 30) | 1 | 38960 | 29270 | 30020 | 20565 | 2560 | inactive |
| CG15199 | 1 | 1.23e5 | 1.34e5 | 2.66e5 | 2.21e5 | 8200 | inactive |
| CG3626 | 1 | 1.18e5 | 1.53e5 | 2.35e5 | 2.66e5 | 10245 | inactive |
| Eig71Ea (Ecdysone-induced gene 71Ea) | 1 | 1.64e5 | 1.59e5 | 1.99e5 | 1.61e5 | 6690 | inactive |
| Grik | 1 | 1.35e5 | 1.32e5 | 1.72e5 | 1.87e5 | 11840 | inactive |
| Grik | 2 | 2.25e5 | 1.95e5 | 2.45e5 | 2.50e5 | 14450 | inactive |
